Data reported in paper doi:10.1101/2020.10.21.349357.
Results are given in words; binding and its absence hold for the method and conditions named. In cells and extracts the contact can be indirect. Binding calls can cover weak binding; strength is not graded here.

Chains of the proteins cited; added tags and fusions are not shown. Lines headed by an entry give the natural chain unless they say otherwise; changes in a name come on top.
UniProt Q9Y6K9, whole entry, stated change not applied: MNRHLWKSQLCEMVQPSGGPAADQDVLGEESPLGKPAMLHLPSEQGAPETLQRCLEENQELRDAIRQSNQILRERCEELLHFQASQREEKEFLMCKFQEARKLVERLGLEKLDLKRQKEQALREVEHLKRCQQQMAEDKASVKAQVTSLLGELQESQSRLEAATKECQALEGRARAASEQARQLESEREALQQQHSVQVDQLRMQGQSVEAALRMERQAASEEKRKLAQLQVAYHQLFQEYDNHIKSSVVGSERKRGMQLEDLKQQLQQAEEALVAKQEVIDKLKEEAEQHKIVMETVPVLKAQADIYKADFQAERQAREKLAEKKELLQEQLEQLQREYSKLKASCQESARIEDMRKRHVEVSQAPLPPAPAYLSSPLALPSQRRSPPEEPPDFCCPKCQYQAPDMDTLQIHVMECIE

Molecular target: Flag-tagged NEMO (UniProt Q9Y6K9)
Assay: co-IP

binding: binds
Substance: HA-N4BP1 with NYN domain deletion (from UniProt O75113)
